Results are given in words; binding and its absence hold for the method and conditions named. In cells and extracts the contact can be indirect. Some entries that bind do so weakly or less than the wild type.
Biological target: Optic Atrophy 1 (OPA1) (mouse (endogenous in MEFs)) (UniProt P58281)
Test: cross-linking; Src+/+ and Src-/- MEFs treated with the crosslinker bismaleimidohexane (1 mM) during 30 min at 37 °C, directly processed for SDS-PAGE; immunoblotting of OPA1 monomers and oligomers

The chains behind the UniProt entries cited, without tags or fusion partners. Residues count along the entry.
UniProt P58281, residues 88-960: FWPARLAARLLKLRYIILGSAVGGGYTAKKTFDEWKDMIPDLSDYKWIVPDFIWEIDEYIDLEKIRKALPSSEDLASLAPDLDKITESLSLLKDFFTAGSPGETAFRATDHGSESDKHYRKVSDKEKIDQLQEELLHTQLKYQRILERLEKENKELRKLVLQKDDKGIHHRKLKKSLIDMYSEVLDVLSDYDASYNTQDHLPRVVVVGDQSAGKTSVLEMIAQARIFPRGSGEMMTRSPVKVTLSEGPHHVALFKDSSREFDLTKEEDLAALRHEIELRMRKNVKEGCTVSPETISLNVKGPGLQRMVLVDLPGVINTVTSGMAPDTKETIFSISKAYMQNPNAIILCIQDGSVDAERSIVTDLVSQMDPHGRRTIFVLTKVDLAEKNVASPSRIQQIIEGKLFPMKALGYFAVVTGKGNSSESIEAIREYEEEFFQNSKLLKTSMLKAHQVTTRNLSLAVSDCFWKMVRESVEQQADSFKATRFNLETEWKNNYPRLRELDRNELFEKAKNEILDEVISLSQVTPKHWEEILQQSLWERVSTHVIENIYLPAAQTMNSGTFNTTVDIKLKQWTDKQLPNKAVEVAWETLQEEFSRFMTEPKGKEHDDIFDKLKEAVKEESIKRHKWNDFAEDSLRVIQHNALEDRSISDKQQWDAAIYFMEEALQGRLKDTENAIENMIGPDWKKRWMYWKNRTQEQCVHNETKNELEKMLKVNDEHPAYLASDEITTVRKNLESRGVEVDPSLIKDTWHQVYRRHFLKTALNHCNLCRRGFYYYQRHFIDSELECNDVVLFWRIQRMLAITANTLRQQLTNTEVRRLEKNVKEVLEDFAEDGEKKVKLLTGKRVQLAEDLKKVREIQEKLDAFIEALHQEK

- binding: binds
Substance: Optic Atrophy 1 (OPA1) (from UniProt P58281 88-960)

— PMC9151517
